The list shows a part of the results. These are further read-outs of the screen, such as a control signal, another cell line or another target. No call is given for them. The list favours compounds with an active or inconclusive main result. Potencies come from curve fits of mixed quality, noted in brackets.
Assay: qHTS Assay for Lipid Storage Modulators in Drosophila S3 Cells;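 as to cell number change: cells counted by Cell Tracker Red CMTPX staining in the red channel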
Conditions: BODIPY lipid droplet fluorescence, 18-24 h; for cell number change: measured here: cell count max response, cells fed with added oleic acid
Outline: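 Laser-scanning cytometry quantifies lipid droplet accumulation (500–530 nm total intensity; droplet/cell object ratio) in oleic acid-fed (400 uM added) Drosophila S3 cells treated with a concentration series. 20 uM Triacsin C defined 100% inhibition.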

[1] = measured here: cell number channel AC50, cells fed with added oleic acid
[2] = measured here: lipid fluorescence (Fed channel) AC50, cells fed with added oleic acid

Row | Compound | cell number change | AC50 [1] | AC50 [2]
1 | Cc1ccsc1-c1nc(CSCC(=O)N2CCN(c3ccccc3)CC2)c(C)o1 | -56.5% | 11.6 µM [falling, partial curve] | 18.4 µM [falling, single point]
2 | OCCN(CCO)Cc1ccc(Br)cc1 | -99.1% | 25.9 µM [falling, partial curve] | 23.1 µM [falling, partial curve]
3 | CCOc1ccccc1CNC(CC)CO (stereo not drawn) | -37.3% | 20 µM [falling, single point] | –
4 | Cc1ccccc1CNC(=O)c1ccccc1N | -2.93% | – | –
5 | CC(Sc1nnc(C2CC2)n1C)C(=O)Nc1ccc2c(c1)CCC2 (stereo not drawn) | 12.1% | – | 0.092 µM [falling, single point]
6 | CC1CC(C)(C)NCCNC(C)CC(C)(C)NCCN1 (stereo not drawn) | 0.74% | – | 0.366 µM [falling, partial curve]
7 | CC(NC(=O)c1ccc(Br)cc1)c1ccccc1 (stereo not drawn) | -1.74% | – | 0.461 µM [rising, full curve, poor fit]
8 | COc1cc(C(=S)N2CCOCC2)cc(OC)c1OC | -30.6% | 0.00461 µM [falling, full curve, poor fit] | 0.731 µM [falling, full curve]
9 | CCc1ccc(C2CC(c3cccc(Cl)c3)n3nc(N)nc3N2)cc1 (stereo not drawn) | -10.8% | – | –
10 | O=C(NNC(=O)c1cc(-c2cccnc2)nc2ccccc12)Nc1ccc(Cl)cc1 | 73.1% | – | –
11 | O=C(CSc1nnc(CNC(=O)c2c(F)cccc2Cl)o1)NCc1ccc2c(c1)OCO2 | 2.7% | – | 18.4 µM [falling, partial curve]
12 | COc1ccc(-c2ccc(-c3nnc(-c4ccncc4)o3)cc2)cc1 | 19.5% | 0.13 µM [rising, full curve, poor fit] | 0.82 µM [rising, full curve, poor fit]
13 | CCCOc1ccccc1C1NC(=O)NC(C)=C1C(=O)OCCOC(C)C (stereo not drawn) | -15.6% | – | 4.61 µM [rising, full curve, poor fit]
14 | COC(=O)c1sccc1-n1cccc1C(=O)C(=O)Nc1ccc(F)cc1 | -49.1% | 5.17 µM [falling, full curve, poor fit] | 5.8 µM [falling, full curve]
15 | O=C(COC(=O)c1cccc(N2C(=O)C3CC=CCC3C2=O)c1)c1ccccc1 (stereo not drawn) | -27.5% | – | 0.651 µM [rising, single point]
16 | COC(=O)c1ccccc1S(=O)(=O)N1CCC(C(=O)NCC2CCCO2)CC1 (stereo not drawn) | -24.2% | 4.11 µM [falling, full curve, poor fit] | 4.11 µM [falling, full curve, poor fit]
17 | CCOC(=O)c1c(NC(=O)c2ccccc2)sc2c1CCc1ccccc1-2 | 31% | 1.46 µM [rising, full curve, poor fit] | –
18 | O=C(Nc1ccc(F)c(F)c1)NC1CCCCC1 | 1.96% | – | 0.00651 µM [falling, full curve, poor fit]

Row | Compound | cell number change | AC50 [1] | AC50 [2]
19 | O=C(NCc1ccc2c(c1)OCO2)C1CCC(=O)N1C1CCCC1 (stereo not drawn) | 31.1% | 0.092 µM [rising, full curve, poor fit] | 32.6 µM [rising, single point]
20 | O=C(C1CC(c2ccc(F)cc2)=NO1)N1CCN(c2ccccc2)CC1 (stereo not drawn) | -14.4% | 1.46 µM [falling, partial curve, poor fit] | –
21 | CC(CCc1ccccc1)NC(=O)Cn1cccc1C(=O)c1ccccc1 (stereo not drawn) | 13.9% | – | 2.59 µM [rising, full curve]
22 | CCCN1CCC(=O)N([C@H](CSc2ccc(OC)cc2)c2ccccc2)CC1 | 29.1% | – | 0.517 µM [rising, full curve, poor fit]
23 | CCN(C(=O)COC(=O)/C=C/c1cccc(Br)c1)C1CCS(=O)(=O)C1 (stereo not drawn) | – | – | 32.6 µM [rising, single point]
24 | CC(OC(=O)Cc1ccsc1)C(=O)Nc1ccc(C(N)=O)cc1 (stereo not drawn) | -43.1% | 5.8 µM [falling, full curve, poor fit] | 0.058 µM [falling, full curve, poor fit]
25 | CSc1nnc(CCCCCNC(=O)OC(C)(C)C)o1 | 1.29% | 2.91 µM [rising, single point] | –
26 | COc1cc(NC(=O)c2cc(=O)[nH]c3ccc(S(=O)(=O)N4CCOCC4)cc23)cc(OC)c1 | -50% | 0.0146 µM [falling, full curve, poor fit] | 0.00517 µM [rising, full curve, poor fit]
27 | Cc1ccc(S(=O)(=O)/N=C(/Nc2ccc(F)cc2F)c2ccc(F)cc2)cc1 | 26.4% | – | –
28 | CN1c2ccccc2N(C)C1(C)c1ccccc1 | -47.3% | 32.6 µM [falling, single point] | 29.1 µM [falling, single point]
29 | COc1ccc(S(=O)(=O)N2c3ccccc3OCC2C)cc1 (stereo not drawn) | 32.6% | – | –
30 | COc1ccc(OC)c(C2C3=C(N=c4s/c(=C\c5cccc(O)c5)c(=O)n42)c2ccccc2CC3)c1 (stereo not drawn) | – | 0.731 µM [rising, full curve] | 16.4 µM [falling, partial curve]
31 | CCCCn1nc(NC(=O)CC)c2cc3cc(OC)ccc3nc21 | -13.4% | – | –
32 | CCCN1C(=O)/C(=C/c2c(N3CCNC(=O)C3CC(=O)OC)nc3c(C)cccn3c2=O)SC1=S (stereo not drawn) | -103% | 4.61 µM [falling, full curve] | 2.91 µM [falling, full curve]
33 | CCC1CCCCN1C(=O)c1cc(COc2ccc3ncccc3c2)on1 (stereo not drawn) | -46.2% | 8.2 µM [falling, partial curve] | 8.2 µM [falling, partial curve]
34 | CCSCCOC(=O)C1=C(C)NC(=O)NC1c1ccc2c(c1)OCO2 (stereo not drawn) | -30% | 11.6 µM [falling, partial curve, poor fit] | 29.1 µM [rising, single point]
35 | Cn1nccc1C(=O)N1CCN(c2cccc(Cl)c2)CC1 | -6.91% | – | 29.1 µM [falling, single point]
36 | CN(C)c1cccc(Oc2nc3c(c(=O)n(C)c(=O)n3C)n2C)c1 | 22.8% | – | 29.1 µM [falling, single point]

Whole records as entered above.
`CCN(C(=O)COC(=O)/C=C/c1cccc(Br)c1)C1CCS(=O)(=O)C1` (stereo not drawn) as listed: AC50 [2]: 32.6 µM [rising, single point]
`Cc1ccc(S(=O)(=O)/N=C(/Nc2ccc(F)cc2F)c2ccc(F)cc2)cc1` as listed: cell number change: 26.4%
